PubChem BioAssay AID686943 – Drosophila RNAi Screening Center | 2013
Aim: 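Fly genes whose loss alters ERK activation after insulin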 (primary screen). Cell system: Drosophila S2R+ haemocyte-like cells expressing YFP-tagged ERK (Rolled). Knock-down reagent: long dsRNA against Drosophila genes. Challenge: insulin stimulation versus unstimulated cells; dose and duration not given. Measurement: 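Per-plate z-scores of phospho-ERK immunostaining normalised to YFP-tagged ERK, measured with and without insulin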. Reading the numbers: replicate 1, z-score of dpERK with insulin and replicate 2, z-score of dpERK with insulin: higher = more active ERK per ERK-YFP after insulin.
The screen tested about 23,000 reagents; this is an unselected part of those that have a named target and a result. 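Extra replicates exist only for a retested subset of genes; insulin dose and duration not given; both raised and lowered dpERK matter.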 The numbers tell different reagents against one gene apart. Names joined by + are all predicted targets of the reagent. Further read-outs or replicates are left out here. Not stated in the record: the amount of reagent, the time to read-out.

Ptr #1: replicate 1, z-score of dpERK with insulin = -0.81; replicate 2, z-score of dpERK with insulin = -0.22
Ptr #2: replicate 1, z-score of dpERK with insulin = 0.09; replicate 2, z-score of dpERK with insulin = 0.34
CG15517: replicate 1, z-score of dpERK with insulin = -0.31; replicate 2, z-score of dpERK with insulin = 1.69
CG31300: replicate 1, z-score of dpERK with insulin = 0.49; replicate 2, z-score of dpERK with insulin = 0.17
CG10752: replicate 1, z-score of dpERK with insulin = 0.06; replicate 2, z-score of dpERK with insulin = 0.04
CG42583: replicate 1, z-score of dpERK with insulin = -0.05; replicate 2, z-score of dpERK with insulin = -0.16
CG12935 + Nop10: replicate 1, z-score of dpERK with insulin = 0.08; replicate 2, z-score of dpERK with insulin = 0.47
Asator: replicate 1, z-score of dpERK with insulin = 0.25; replicate 2, z-score of dpERK with insulin = -0.66
CG4927: replicate 1, z-score of dpERK with insulin = 0.03; replicate 2, z-score of dpERK with insulin = -0.13
CG12863: replicate 1, z-score of dpERK with insulin = 0.96; replicate 2, z-score of dpERK with insulin = 0.27
mRpS7: replicate 1, z-score of dpERK with insulin = -0.78; replicate 2, z-score of dpERK with insulin = 0.08
vimar: replicate 1, z-score of dpERK with insulin = 0.86; replicate 2, z-score of dpERK with insulin = 1.44
CG31928: replicate 1, z-score of dpERK with insulin = 0.73; replicate 2, z-score of dpERK with insulin = 0.21
CG9302: replicate 1, z-score of dpERK with insulin = -0.27; replicate 2, z-score of dpERK with insulin = 0.19
wek: replicate 1, z-score of dpERK with insulin = -0.78; replicate 2, z-score of dpERK with insulin = -0.56
CG42233 #1: replicate 1, z-score of dpERK with insulin = -0.16; replicate 2, z-score of dpERK with insulin = -0.09
CG42233 #2: replicate 1, z-score of dpERK with insulin = -0.83; replicate 2, z-score of dpERK with insulin = 0
CG14491: replicate 1, z-score of dpERK with insulin = 0.4; replicate 2, z-score of dpERK with insulin = 0.34
CG33333: replicate 1, z-score of dpERK with insulin = -2.12; replicate 2, z-score of dpERK with insulin = 0.49
CG9641: replicate 1, z-score of dpERK with insulin = 0.11; replicate 2, z-score of dpERK with insulin = -0.16
APP-BP1: replicate 1, z-score of dpERK with insulin = 0.19; replicate 2, z-score of dpERK with insulin = 0.32
CG13021: replicate 1, z-score of dpERK with insulin = 0.91; replicate 2, z-score of dpERK with insulin = 0.45
Arp8: replicate 1, z-score of dpERK with insulin = -0.13; replicate 2, z-score of dpERK with insulin = -0.81
CG4080: replicate 1, z-score of dpERK with insulin = -0.47; replicate 2, z-score of dpERK with insulin = -0.99
Ncoa6: replicate 1, z-score of dpERK with insulin = -7.48; replicate 2, z-score of dpERK with insulin = -5.61
CG9577: replicate 1, z-score of dpERK with insulin = 1.54; replicate 2, z-score of dpERK with insulin = 0.61
mrt: replicate 1, z-score of dpERK with insulin = -0.29; replicate 2, z-score of dpERK with insulin = 0
Ice2: replicate 1, z-score of dpERK with insulin = -0.61; replicate 2, z-score of dpERK with insulin = -0.23
CG2100: replicate 1, z-score of dpERK with insulin = -0.4; replicate 2, z-score of dpERK with insulin = -0.2
CG42633: replicate 1, z-score of dpERK with insulin = 0.23; replicate 2, z-score of dpERK with insulin = 0.53
CG3631: replicate 1, z-score of dpERK with insulin = -0.18; replicate 2, z-score of dpERK with insulin = 0.21
CG10631: replicate 1, z-score of dpERK with insulin = -0.42; replicate 2, z-score of dpERK with insulin = 1.02
fs(1)M3: replicate 1, z-score of dpERK with insulin = 0.17; replicate 2, z-score of dpERK with insulin = -0.95
CG31560: replicate 1, z-score of dpERK with insulin = 1.21; replicate 2, z-score of dpERK with insulin = 0.71
Cpsf160: replicate 1, z-score of dpERK with insulin = 1.1; replicate 2, z-score of dpERK with insulin = 1.4
CG46441: replicate 1, z-score of dpERK with insulin = 0.59; replicate 2, z-score of dpERK with insulin = 0.35
mus201 + Chrac-14 #1: replicate 1, z-score of dpERK with insulin = -0.11; replicate 2, z-score of dpERK with insulin = -0.21
mus201 + Chrac-14 #2: replicate 1, z-score of dpERK with insulin = 0.18; replicate 2, z-score of dpERK with insulin = -0.45
IKKepsilon: replicate 1, z-score of dpERK with insulin = -0.08; replicate 2, z-score of dpERK with insulin = 0.42
Coq9: replicate 1, z-score of dpERK with insulin = -0.88; replicate 2, z-score of dpERK with insulin = 0.45

Copied from the list:
Coq9, replicate 2, z-score of dpERK with insulin → 0.45
Under “replicate 1, z-score of dpERK with insulin”, vimar reads 0.86
CG33333, replicate 1, z-score of dpERK with insulin: -2.12
Entry of Ncoa6 in “replicate 1, z-score of dpERK with insulin”: -7.48
Result of CG4927 in “replicate 1, z-score of dpERK with insulin”: 0.03
Entry of Ptr #2 under “replicate 2, z-score of dpERK with insulin”: 0.34
